Experimental data reported in PMC12040169 (PLOS Biology, 2025).
The other results are listed elsewhere or left out.

Test system: T1, CTL2-GFP (C. trachomatis L2/434/Bu, GFP-expressing)
T1 construct: L2/434/Bu, GFP-expressing
Parameters: species or system HeLa; Intracellular C. trachomatis growth in HeLa cells, bulk GFP fluorescence relative to DMSO
Settings: bulk GFP, single well; 28.5 h, 10 µM; inhibitor

| SMILES | % of control remaining [%] |
| --- | --- |
| CCOC(=O)c1cnc(SCC(=O)N2c3ccccc3SC3C=CC=CC32)nc1N (centres unmarked) [CBK269029] | 139.846 |
| COc1ccc(CCN(CCN2CCOCC2)C(=O)NCc2ccc3c(c2)OCO3)cc1OC [CBK160540] | 60.2508 |
| Cc1nc(C)c(CCC(=O)NC2CCSc3c(F)cccc32)c(=O)[nH]1 (centres unmarked) [CBK295601] | 145.089 |
| COc1cc(C(=O)N2CCC3(CCN(C(=O)Cc4c[nH]c5ccccc45)C3)C2)cc(OC)c1OC (centres unmarked) [CBK131448] | 112.456 |
| Cc1[nH]c(=O)[nH]c(=O)c1N(CCO)CCO [CBK262052] | 119.039 |
| CC(C)(C)OC(=O)N1CCN(c2cc(N)ncn2)CC1 [CBK001963] | 72.5018 |
| CCN(CC)c1cc(N2CCCNCC2)ccc1S(=O)(=O)c1cccc(F)c1 [CBK018509C] | 132.842 |
| CC(C)C(CNCc1ccn(C)c1)c1ccnn1C (centres unmarked) [CBK304822] | 95.1788 |
| O=C(COc1ccccc1)N1CCN(Cc2ccncc2)CC1 [CBK072595] | 117.634 |
| COc1ccc(Cc2nc(C(C)(C)C)cs2)cc1 [CBK021497B] | 134.316 |
| O=C(Cn1cnnn1)N1CCN(Cc2ccccc2)CC1 [CBK026053] | 114.121 |
| CC(C)(C)OC(=O)c1cc(C(=O)O)ccc1O [CBK000394] | 122.055 |
| Cc1cc(-c2cn3cc(C(=O)NCCN(C)C)nc3c(=O)n2C)c(C)o1 [CBK307160] | 97.4271 |
| Cc1ccc(C2(C(=O)N(C)CCN3CCCCC3)CCOCC2)cc1 [CBK281833] | 118.367 |
| CC1(C)CC(NC(=O)c2cc3cccnc3[nH]2)CCO1 (centres unmarked) [CBK305467] | 116.037 |
| N#Cc1c(NC(=O)CSc2nnc(-c3ccncc3)o2)sc2c1CCCC2 [CBK266374] | 142.537 |
| O=C1C2C(c3ccc(F)cc3)NC(c3ccc(F)cc3)C1C(c1ccc(F)cc1)NC2c1ccc(F)cc1 (centres unmarked) [CBK261288] | 83.5709 |
| CCCC/C=C/c1cncc(Nc2cc(OC)c(OC)c(OC)c2)n1 [CBK065155] | 113.073 |
| CCN(CC)C(=O)CN1CCN(c2nccnc2Oc2ccc(OC)c(OC)c2)CC1 [CBK083051T] | 141.036 |
| COc1cccc(C(c2nnnn2C(C)(C)C)N2CCN(c3cccc(Cl)c3)CC2)c1 (centres unmarked) [CBK141669] | 101.947 |
| COc1ccc(-c2ccc3c(c2)C(=O)N2CC[C@H](NC(=O)C4CCCC4)[C@H]2C(=O)N3)cc1 [CBK289330] | 141.826 |
| O=c1[nH]c(=O)c2nnc(N/N=C\c3ccc(O)cc3)nc2[nH]1 [CBK263312] | 95.4552 |
| O=C(NCCCN1CCOCC1)c1cnc(-c2ccccc2)c(-c2ccncc2)c1 [CBK036664] | 174.2 |
| Cc1ccccc1NC(=O)c1cnn2cccnc12 [CBK288217] | 148.609 |
| COc1ccc(NC(=S)NCCCN(C)C)cc1 [CBK264292] | 126.01 |

| SMILES | % of control remaining [%] |
| --- | --- |
| COc1ccc(C2=CC(c3ccc(C(F)(F)F)cc3)n3nnnc3N2)cc1OC (centres unmarked) [CBK296131] | 107.677 |
| COc1ccc(S(=O)(=O)Nc2nnc(C(C)C)s2)cc1 [CBK045525] | 100 |
| CC(Sc1ccccn1)C(=O)Nc1ccc(S(N)(=O)=O)cc1 (centres unmarked) [CBK265579] | 123.144 |
| COc1cc(-c2cn3ccnc3c(NC3CC3)n2)cc(OC)c1OC [CBK066184] | 155.043 |
| CCCn1c(SC(C)C(=O)Nc2ccc(S(=O)(=O)NC(C)C)cc2)n[nH]c1=O (centres unmarked) [CBK295169] | 136.549 |
| COCCN1CCCC(NS(=O)(=O)c2cccc(C(C)=O)c2)C1 (centres unmarked) [CBK305290] | 113.076 |
| O=C(O)Cc1nnc(CNc2ccc(Cl)cc2)[nH]1 [CBK286651] | 106.732 |
| Cc1ccc(C)c(C(=O)C2=C(O)C(=O)N(CCCN3CCOCC3)C2c2cccc([N+](=O)[O-])c2)c1 (centres unmarked) [CBK265503] | 119.579 |
| COc1ccccc1CCCNC(=O)c1ccc(=O)n(C)c1 [CBK282636] | 113.822 |
| Cc1ccc(NC(=O)Cn2cnc3c(-c4ccccc4)csc3c2=O)cc1 [CBK287812] | 105.202 |
| O=S(=O)(c1ccc(F)cc1)c1nc(-c2cccs2)oc1N1CCN(Cc2ccccc2)CC1 [CBK267672] | 110.808 |
| CC(=O)Nc1ccccc1NC(=O)C(C)Oc1ccc(Cl)cc1Cl (centres unmarked) [CBK263954] | 96.5497 |
| CCc1nc2ccc(C(=O)N3CCNC(=O)C3)cn2c1N(CCC(C)C)CCN(C)C [CBK146255] | 115.143 |
| C#CCNC(=O)CC[C@H]1CNC(=O)[C@@H]2[C@@H](CCN2Cc2ccc(O)cc2)N1C [CBK289017] | 131.681 |
| COc1ccccc1C(=O)Nc1sc2c(c1C(=O)NCc1ccco1)CCCC2 [CBK265105] | 161.343 |
| CC(C)(C)c1ccc(Oc2ccc(NC(=O)CCCC(=O)O)cc2)cc1 [CBK264339] | 120.876 |
| Cc1c(C(=O)N(C)CC(F)(F)F)nnn1-c1ccc(F)cc1 [CBK282214] | 122.227 |
| Cc1ccc(Cc2cnc(NC(=O)C3CNC(=O)N3)s2)cc1F (centres unmarked) [CBK305919] | 96.5441 |
| CCCCn1c(NCc2nc3ccccc3n2C)nc2ccccc21 [CBK264177] | 100 |
| O=C(CCN1CCOCC1)Nc1ccc(Cl)cc1 [CBK263820] | 115.321 |
| N/C(=N\OC(=O)COc1cccc2ccccc12)c1ccc(Cl)cc1 [CBK263004] | 109.914 |
| O=C1NN=C(O)C1Cc1ccccc1 (centres unmarked) [CBK067758] | 104.177 |
| CSc1cccc(-c2cnccc2-n2ccnc2)c1 [CBK177155] | 95.0934 |
| CC(=O)NC1(c2ccccc2)CCN(CC(O)c2ccccc2)CC1 (centres unmarked) [CBK284819] | 101.309 |
| CCOC(=O)C1C2CCC3(CC(=O)c4cc(Cl)ccc4O3)C21 (centres unmarked) [CBK284858] | 105.463 |

Structural class, those above with a furan ring, fused or not (2)

| SMILES | % of control remaining [%] |
| --- | --- |
| Cc1cc(-c2cn3cc(C(=O)NCCN(C)C)nc3c(=O)n2C)c(C)o1 [CBK307160] | 97.4271 |
| COc1ccccc1C(=O)Nc1sc2c(c1C(=O)NCc1ccco1)CCCC2 [CBK265105] | 161.343 |
